These are yes or no findings as the source states them, for the method shown. In cells and extracts the contact can be indirect. These calls come from enrichment with a bait or labelling near it, and not all partners need be listed. Sequences can lack the tags named with a protein.
Target: T1, GST-Arfrp1 (Q79L), dominant active form, GTPγS-loaded (UniProt Q13795)
T1 sequence: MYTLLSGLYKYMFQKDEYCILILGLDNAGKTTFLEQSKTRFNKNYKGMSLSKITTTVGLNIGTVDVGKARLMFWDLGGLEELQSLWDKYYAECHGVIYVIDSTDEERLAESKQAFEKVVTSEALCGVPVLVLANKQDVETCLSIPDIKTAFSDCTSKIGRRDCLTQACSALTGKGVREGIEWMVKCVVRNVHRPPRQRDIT
Assay: affinity purification with mass spectrometry; GST-Arfrp1 (50 μg) on glutathione beads loaded with GDP or GTPγS; bovine brain cytosol, 4°C overnight, 20 mM Hepes pH 7.4, 100 mM KCl, 5 mM MgCl2, 0.1% TX100; washed with 500 mM KCl; eluate on SDS-PAGE, silver stained, gel slices to mass spectrometry; only the target purified

Substance	binding
serine/threonine-protein kinase (A-Raf) (enzyme)	binds
γ1-adaptin	binds

Source: publication PMC3539332
